Here are results for two molecules from article PMC11814372.

Chains of the proteins cited; added tags and fusions are not shown.
UniProt Q9NZM1: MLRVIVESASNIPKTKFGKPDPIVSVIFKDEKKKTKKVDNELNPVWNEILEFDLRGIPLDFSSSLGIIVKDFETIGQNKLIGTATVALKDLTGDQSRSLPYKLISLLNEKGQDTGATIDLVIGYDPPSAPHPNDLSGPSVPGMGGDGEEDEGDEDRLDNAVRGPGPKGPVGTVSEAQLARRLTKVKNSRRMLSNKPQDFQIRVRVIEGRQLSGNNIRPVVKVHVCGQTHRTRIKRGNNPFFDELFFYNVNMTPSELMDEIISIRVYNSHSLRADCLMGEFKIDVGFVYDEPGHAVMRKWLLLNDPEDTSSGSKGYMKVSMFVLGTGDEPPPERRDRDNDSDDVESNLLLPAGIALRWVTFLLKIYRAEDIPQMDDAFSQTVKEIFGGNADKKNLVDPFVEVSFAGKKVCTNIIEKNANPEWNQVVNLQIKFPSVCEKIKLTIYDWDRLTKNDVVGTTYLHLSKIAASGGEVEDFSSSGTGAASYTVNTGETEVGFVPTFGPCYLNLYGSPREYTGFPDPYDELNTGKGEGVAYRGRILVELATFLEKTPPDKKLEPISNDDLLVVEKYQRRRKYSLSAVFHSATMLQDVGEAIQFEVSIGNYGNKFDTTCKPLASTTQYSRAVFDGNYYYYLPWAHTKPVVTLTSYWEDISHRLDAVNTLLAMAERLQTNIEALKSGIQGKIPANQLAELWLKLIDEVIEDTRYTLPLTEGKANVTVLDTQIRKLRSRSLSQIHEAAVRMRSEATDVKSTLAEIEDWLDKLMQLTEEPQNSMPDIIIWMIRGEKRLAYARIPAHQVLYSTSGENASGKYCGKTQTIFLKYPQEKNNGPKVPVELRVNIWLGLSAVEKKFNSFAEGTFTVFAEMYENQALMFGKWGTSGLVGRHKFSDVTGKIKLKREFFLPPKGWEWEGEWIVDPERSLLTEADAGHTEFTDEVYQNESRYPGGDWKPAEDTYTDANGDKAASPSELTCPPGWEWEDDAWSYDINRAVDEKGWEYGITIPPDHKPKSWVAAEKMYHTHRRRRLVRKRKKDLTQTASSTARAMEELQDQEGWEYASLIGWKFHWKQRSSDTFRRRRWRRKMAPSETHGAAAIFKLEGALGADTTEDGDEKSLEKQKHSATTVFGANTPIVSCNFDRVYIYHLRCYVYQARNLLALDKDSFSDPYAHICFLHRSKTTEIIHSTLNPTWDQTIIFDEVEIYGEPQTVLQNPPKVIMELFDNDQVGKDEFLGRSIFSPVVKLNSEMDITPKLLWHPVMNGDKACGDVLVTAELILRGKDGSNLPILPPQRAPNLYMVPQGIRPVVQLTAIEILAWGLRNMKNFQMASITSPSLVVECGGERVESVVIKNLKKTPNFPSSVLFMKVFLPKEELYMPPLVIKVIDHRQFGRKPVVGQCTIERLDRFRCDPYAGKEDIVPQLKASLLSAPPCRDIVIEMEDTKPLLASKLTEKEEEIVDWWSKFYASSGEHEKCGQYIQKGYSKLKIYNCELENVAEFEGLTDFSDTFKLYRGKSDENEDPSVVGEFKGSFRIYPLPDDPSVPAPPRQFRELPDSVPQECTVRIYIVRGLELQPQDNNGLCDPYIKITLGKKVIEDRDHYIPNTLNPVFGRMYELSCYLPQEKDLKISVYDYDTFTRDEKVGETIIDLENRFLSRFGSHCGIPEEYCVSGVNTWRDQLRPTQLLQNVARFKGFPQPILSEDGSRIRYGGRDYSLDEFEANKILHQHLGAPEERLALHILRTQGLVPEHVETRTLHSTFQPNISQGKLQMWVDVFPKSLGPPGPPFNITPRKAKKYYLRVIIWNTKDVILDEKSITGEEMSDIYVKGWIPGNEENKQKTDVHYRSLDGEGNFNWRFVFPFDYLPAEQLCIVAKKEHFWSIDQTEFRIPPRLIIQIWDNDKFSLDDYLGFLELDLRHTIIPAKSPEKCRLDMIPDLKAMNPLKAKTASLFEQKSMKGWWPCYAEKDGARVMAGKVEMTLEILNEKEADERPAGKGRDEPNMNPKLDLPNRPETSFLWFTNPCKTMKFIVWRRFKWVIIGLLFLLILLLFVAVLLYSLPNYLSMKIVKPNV

These are yes or no findings as the source states them, for the method shown. Binding seen in cells or lysates may run through a third protein. Some results given as binding are weak or reduced against the parent protein; the word gives no strength. Tags and fused reporters may be left off the sequences shown.

One assay addresses T1, TRIM8-V5 (UniProt Q9BZR9).
T1 sequence: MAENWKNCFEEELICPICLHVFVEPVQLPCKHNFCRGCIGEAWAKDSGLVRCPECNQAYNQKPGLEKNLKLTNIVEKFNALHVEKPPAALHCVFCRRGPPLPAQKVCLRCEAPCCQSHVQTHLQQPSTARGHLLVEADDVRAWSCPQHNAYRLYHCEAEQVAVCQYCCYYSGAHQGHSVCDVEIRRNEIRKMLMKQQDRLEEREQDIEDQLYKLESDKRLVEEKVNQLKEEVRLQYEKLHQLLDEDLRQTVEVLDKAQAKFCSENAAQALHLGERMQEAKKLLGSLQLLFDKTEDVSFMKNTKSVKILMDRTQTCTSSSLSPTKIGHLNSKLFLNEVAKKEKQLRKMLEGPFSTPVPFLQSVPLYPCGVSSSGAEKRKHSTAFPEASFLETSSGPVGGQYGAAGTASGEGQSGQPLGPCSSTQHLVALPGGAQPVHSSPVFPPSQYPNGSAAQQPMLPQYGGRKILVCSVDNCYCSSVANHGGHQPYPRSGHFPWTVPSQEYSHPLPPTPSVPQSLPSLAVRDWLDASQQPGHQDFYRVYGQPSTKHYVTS
The experiment in a line: co-IP; CL1-0 cells stably expressing TRIM8-V5; immunoprecipitation with anti-V5 antibodies, western blot for endogenous MYOF.

For assay [1], the target named is MYOF (Myoferlin) (human (endogenous in CL1-0)) (UniProt Q9NZM1). The experiment in a line: co-IP; CL1-0 cells stably expressing TRIM8-V5; endogenous MYOF as the bait, western blot for TRIM8-V5. A general note: In western blotting, separated proteins are transferred to a membrane and probed.

Regarding “MYOF (Myoferlin) (from UniProt Q9NZM1 1-2061)”, the binding result with TRIM8-V5 is “binds”.

B1: TRIM8-V5 (enzyme, UniProt Q9BZR9 1-551)
chain: T1 sequence
Regarding B1, in assay [1], the binding entry is listed as “binds”.
